Results are given in words; binding and its absence hold for the method and conditions named. Binding seen in cells or lysates may run through a third protein. Some binding calls cover weakened binding; strength is not graded here.
Target: His-tagged CP47 (PSII core antenna protein CP47) (Synechocystis sp. PCC 6803) (UniProt P05429)
Assay: pull-down

Amino acid sequences for entries named in this document (tags omitted).
UniProt P05429: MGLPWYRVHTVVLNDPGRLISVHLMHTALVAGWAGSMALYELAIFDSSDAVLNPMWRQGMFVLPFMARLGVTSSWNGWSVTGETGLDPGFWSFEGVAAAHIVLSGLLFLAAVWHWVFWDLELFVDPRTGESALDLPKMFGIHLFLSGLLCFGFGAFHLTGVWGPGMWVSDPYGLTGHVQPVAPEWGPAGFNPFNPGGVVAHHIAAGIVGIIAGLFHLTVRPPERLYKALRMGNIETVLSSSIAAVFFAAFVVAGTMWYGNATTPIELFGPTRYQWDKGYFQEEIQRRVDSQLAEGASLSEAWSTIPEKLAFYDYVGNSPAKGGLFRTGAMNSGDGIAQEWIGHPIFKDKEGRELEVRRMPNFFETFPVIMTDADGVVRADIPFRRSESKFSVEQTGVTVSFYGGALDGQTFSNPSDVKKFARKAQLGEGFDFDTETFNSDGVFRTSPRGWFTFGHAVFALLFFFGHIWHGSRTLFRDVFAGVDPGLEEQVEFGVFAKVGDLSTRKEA

binding: binds
B1: Psb27 (PSII assembly factor) (protein, UniProt P74367 25-134)
chain: CDSGTGLTGNYSQDTLTVIATLREAIDLPQDAPNRQEVQDTARGQINDYISRYRRKGDAGGLKSFTTMQTALNSLAGYYTSYGARPIPEKLKKRLQLEFTQAERSIERGV

Reference: publication doi:10.1101/660712
